PubChem BioAssay AID743121 | NCATS | 2013
Purpose: 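Partners whose loss is lethal together with topoisomerase I blockade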 (primary screen). Cells: MDA-MB-231 cells, a human breast cancer line. Reagents: single siRNA against human genes, 20 nM siRNA (0.8 pmol per well). Timing: 120 h (drug added 48 h after transfection, read 72 h later). Conditions: camptothecin 20 nM (about EC30) for 72 h; vehicle 0.1% DMSO in parallel plates. Read-out: 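CellTiter-Glo ATP signal, scaled to control siRNA as percent viability; sensitisation given as log2 of untreated divided by camptothecin-treated viability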. Scale: log2 vehicle/camptothecin viability: higher = stronger sensitisation to camptothecin. Rule for the call: 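Each gene scored by redundant siRNA activity (RSA) over its individual siRNA ratios; a gene is called active at p < 0.001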.
In all, the deposit lists about 26,000 reagents; this is a part drawn at random. 167 of all reagents (0.63%) were called active. 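Calls are per gene from RSA p-values that are not deposited; an individual active-marked siRNA can sensitise only weakly.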 Unmarked entries are inactive. The numbers tell different reagents against one gene apart. Further read-outs or replicates are left out here. No sequences are given here.

RET #1
- log2 vehicle/camptothecin viability: -0.383

RET #2
- log2 vehicle/camptothecin viability: -0.0264

RET #3
- log2 vehicle/camptothecin viability: -0.459

RET #4
- log2 vehicle/camptothecin viability: 0.112

MAPK8IP1 #1
- log2 vehicle/camptothecin viability: -0.117

MAPK8IP1 #2
- log2 vehicle/camptothecin viability: -0.428

MAPK8IP1 #3
- log2 vehicle/camptothecin viability: -0.492

MAPK8IP1 #4
- log2 vehicle/camptothecin viability: 0.207

VANGL1 #1
- log2 vehicle/camptothecin viability: -0.578

VANGL1 #2
- log2 vehicle/camptothecin viability: 0.00434

VANGL1 #3
- log2 vehicle/camptothecin viability: -0.123

VANGL1 #4
- log2 vehicle/camptothecin viability: 0.148

TENM4 #1
- log2 vehicle/camptothecin viability: -0.216

TENM4 #2
- log2 vehicle/camptothecin viability: -0.0743

TENM4 #3
- log2 vehicle/camptothecin viability: -0.0239
